Results: publication PMC10163288
The other results are listed elsewhere or left out.

B1: il2ra_site1_2b5i_sap_18_mot_HHH_b1_01384_af2_000000011_0001_43_55_H_._HHH_b1_03047_af2_0001_0000200010_0000001_0_0001_af2pred_dldesign_0_af2pred (protein)
chain: SSSSSEKKELVEELLAEARRLEREGRPEEARRLLLLARRVAKKAKDEELIKKVEALLKELESSSS
B2: il2ra_site2_2erj_normal_mot_90f6a21de4ed711cb697bb9f61d9c40c_0001_af2_000000135_0001_36_50_H_._HHH_b1_06682_af2_0001_0000600010_0000001_0_af2pred_0001_af2pred (protein)
chain: SSSSSDEEEELERFVEELVKELGLSEEQKRFLELLVEQLEESGASEELAREQLEFSARELSSSSS
B3: il2ra_site2_2erj_normal_mot_HHH_b1_08162_af2_000000254_0001_40_56_H_._HHH_b1_05945_0001_0000500015_0000001_0 (protein)
chain: SSSDIEEEIQRLFEEAKELLENGNPEEARKLISRAFELAYEANDPRLAARLQELAAKIFHGSSSS
B4: il2ra_site2_2erj_normal_mot_90f6a21de4ed711cb697bb9f61d9c40c_0001_af2_000000135_0001_36_50_H_._HHH_b2_04009_0001_0000200011_0000001_0_af2pred_0001_1_af2pred_swa … (protein)
chain: SSSSDEEELEQLVERLAKELGASEEAKEIAERVARILKELGFSEEEIELWLRLRLEHLTELSSSS
B5: il2ra_site1_1z92_sap_15_mot_HHH_b1_02810_af2_000000169_0001_43_57_H_._HHH_b1_08445_af2_0001_0000200012_0000001_0_0001_af2pred_dldesign_0_af2pred (protein)
chain: SPAEAALAALIEKLRSDNNPAGLYLADQIERAYKKDINSALKLARKAALASEDEALIAALDAVLA
B6: il2ra_site2_3nfp_normal_mot_HHH_b1_05627_af2_000000038_0001_43_56_H_._HHH_b2_06852_af2_0001_0000500015_0000001_0 (protein)
chain: SSSSDKSEEYLKIALELLREAREEGDEEAARSHAEAALIAAESLNDEEIEKELREILEELSSSSS
B7: il2ra_site2_2erj_sap_24_mot_HHH_b1_05944_000000221_0001_38_56_H_._HHH_b1_06467_0001_0000500030_0000001_0_0001 (protein)
chain: SEEELLEKAKELAPSPLAQDAIEQVEELLEEGDPEQAKLVLETLLRMARWLGDPELARVVEELLR
B8: il2ra_site2_3nfp_normal_mot_HHH_b1_01086_000000225_0001_20_36_H_._9b1ece5d1ebc94355a99c96473898622_0001_1_af2_0001_0000200004_0000001_0_af2pred_0001_af2pred (protein)
chain: SEEEELEREAREDPERFIRRAAEEARELGDFELFAFVAELASKVVNGEIPPEEAAKLVVRVLEES
B9: il2ra_site2_2erj_normal_mot_HHH_b1_03107_000000098_0001_39_52_H_._HHH_b1_02899_0001_0001100024_0000001_0 (protein)
chain: SSSSSDKELWERVAELLQEAAHIPDPEERREVLEEAERLAEELGDEALRRYVEYVARDLSSSSSS
B10: il2ra_site1_2b5i_sap_14_mot_HHH_b2_08221_000000034_0001_1_18_H_._0228f8d829d795bfd6a7b5a883d87c83_0001_0001_0000200009_0000001_0_0001 (protein)
chain: SSSSRLELMQFLLEVVDRLAEELGLDREERKKLVRAALKLAARGVDPEEAEEILEELAEKLSSSS
B11: il2ra_site2_2erj_sap_20_mot_HHH_b1_05749_af2_000000010_0001_23_39_H_._HHH_b2_03235_0001_0000600013_0000001_0_0001 (protein)
chain: SSSSSEDFVRVWELLKELAEAAQRGDEELFEELRRRAEELAQEGNNPLLERFVELQAEDQSSSSS
B12: il2ra_site2_3nfp_normal_mot_HHH_b2_07498_000000293_0001_1_14_H_._HHH_b1_02082_af2_0001_0000600036_0000001_0 (protein)
chain: SSSSDEEEEELKELLKRVEELIKNGDPYEALELLDEVHEIARELNDREAIRLVLELYEELLSSSS
B13: il2ra_site2_2erj_sap_13_mot_ca9eff2b9947dfa32b90907aa01746fa_0001_000000002_0001_18_32_H_._HHH_b2_03173_0001_0000300020_0000001_1_0001 (protein)
chain: SSSSDDELQEEADELFRRAKELFKEGDRERVEELLEIVRELLEEYGDPLLRAVFRIIRFALSSSS
B14: il2ra_site2_3nfp_sap_15_mot_HHH_b2_00102_000000046_0001_18_35_H_._HHH_b1_04540_af2_0001_0000400024_0000001_0_0001_af2pred_0001_1_af2pred_swapped (protein)
chain: SSSSSEEEEEVEKLLKEAEELLKRGDPEEAERVVLEAFKIARELNNEELLELIFRLFEKILSSSS
B15: il2ra_site1_3nfp_sap_13_mot_d8099cd8ef6a59b9c03de2010570d688_0001_af2_000000259_0001_37_51_H_._HHH_b1_03767_0001_0000400019_0000001_0_0001_af2pred_0001_af2pred_ … (protein)
chain: SSSSSEEEVRRVLEEAREAFEEGDQKRVDELIRLAARLASKNNDEEALELVEEFMREIAKKSSSS
B16: il2ra_site1_1z92_sap_12_mot_e933875d0a4b1ebfe8e667f01481c16a_0001_1_af2_000000278_0001_14_28_H_._d36a458fe49fd8718958d6305eabf003_0001_0001_0000100020_0000001_0 … (protein)
chain: GPEEVLEELKETGDPVLLTFVSFFERLLKMGASPEMIVEHLKRAAKLMGNPNLEEAIRLFEELLR
B17: il2ra_site1_1z92_sap_14_mot_HHH_b1_04488_000000139_0001_42_58_H_._HHH_b2_01301_af2_0001_0000200016_0000001_1_0001 (protein)
chain: DIERAVEQLTEFIAKAAGVPSVEVTSKDGTFTLHVEGDDEAAERAERLFEKFAEKLGLPFSVEKH
B18: il2ra_site2_3nfp_normal_mot_HHH_b2_03679_000000086_0001_41_56_H_._HHH_b2_03760_0001_0000100002_0000001_0 (protein)
chain: SSSSSELEEYLEAAVLLLEEALKEGDEEIAEKLLELVLKAAEDANDDEIERRLEEIEKELSSSSS

Each binder was assayed against il2ra, P01589 (assay: yeast display titration).

Apparent Kd, inactive:
B1 no binding seen, B2 no binding seen, B3 no binding seen, B4 no binding seen, B5 no binding seen, B6 no binding seen, B7 no binding seen, B8 no binding seen, B9 no binding seen, B10 no binding seen, B11 no binding seen, B12 no binding seen, B13 no binding seen, B14 no binding seen, B15 no binding seen, B16 no binding seen, B17 no binding seen, B18 no binding seen
